In article PMC10542451:
These are yes or no findings as the source states them, for the method shown. In cells and extracts the contact can be indirect. Some entries that bind do so weakly or less than the wild type.

Biological target: PADI3α (mouse peptidylarginine deiminase 3, canonical isoform) (mouse) (UniProt Q9Z184)
Assay: co-IP; triple transfection of PADI3α-HA, PADI3α-Flag and PADI3β-His into HEK293 cells, harvested 48 h after transfection, RIPA lysate; precipitated with anti-HA-tag magnetic beads or Dynabeads His-tag Isolation and pulldown; blotted for Flag

B1: PADI3α (mouse peptidylarginine deiminase 3, canonical isoform) (enzyme, UniProt Q9Z184 1-664)
chain: MSLQRIVRVSLEHPTSAVCVAGVETIVDIYGAVPEGTDMFEVYGTPGVDIYVSPSMERSRERADTRRWCFNKGLEIIVIMNSPSNDLNDSHVQIAYHSSREHLPLAYAVLYLTCVDITLDCDMNCADRQDRSFVDKRQWVWGPDGYGAILLVNCDRDNVDSNAQDNCDQYVRCLQDLEDMSVMVLRTQGPEALFEDHRLILHTSSCDAERARVFHVCGPEDSCESYKCVLGPDRMSYEVPRLKGYEERFFVEGLSFPDAGFPGLISFHVTLLDDSNEDFSETPIFTDTAVFRVAPWIMTPSTLPPLEVYVCRVRNNTCFVEAVEELARKAGCKLTICPQAENRNDRWIQDEMELGYVQAPHKTLPVVFDSPRNGELQGFPYKRILGLDFGYVTREPKDSSVSGLDSFGNLEVSPPVVANGKEYPLGRILIGGNLPGSRGRRVTQVVRNFLHAQKVQPLVELFVDWLAVGHVDEFLSFVPAPDGKGFRLLLASPGACFRLFQEKQKWGHGRSLLFEGVIGDRRVQTVSINQILNNQSLINFNKFAQSCIDWNREVLKRELGLAEGDIIDIPQLFKTEKRKAVAFFPDLVNMLVLGKHLGIPKPFGPIINGRCCLEEKVRSLLEPLGLHCTFIDDFTPYHMLHGEVHCGTNVRREPFAFKWWHMVP
binding: binds
